# PubChem BioAssay AID1053208 | Peter MacCallum Cancer Centre, 2014
# Test: 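Find knock-downs that sensitise mouse osteosarcoma cells to doxorubicin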 (primary screen)
# Cells: mouse osteosarcoma cells, early-passage culture from an engineered mouse model of fibroblastic bone tumour
# Reagent: siRNA pool against mouse genes, 40 nM
# Time to read-out: about 120 h (48 h before drug, then 72 h with drug)
# Challenge: doxorubicin 100 nM for 72 h, roughly 30-40% inhibitory dose
# Read-out: 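Viability read as ATP luminescence after 72 h of 100 nM doxorubicin or none, duplicate wells averaged, scaled to non-targeting siRNA, then expressed as robust z-scores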
# Direction: viability z-score with doxorubicin: higher = more viable cells under doxorubicin; viability z-score without drug: higher = more viable cells with knock-down alone
# Hit rule: 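Called active if knock-down leaves viability unchanged without drug (z within -2 to 2) but lowers it with doxorubicin (z at or under -2)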
# In all, the deposit lists about 17,000 reagents; shown is a part drawn at random. 788 of them (4.7%) were called active. 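Calls rest on z-score classes alone; an extra cut-off of viability at most 70% of control was not applied to them.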 Reagents against one gene are numbered here. Further read-outs or replicates are left out here.
gene knocked down,reagent no.,combined z-score class,viability z-score with doxorubicin,viability z-score without drug,call
Mpp4,1,low cell count with and without drug,-3.37,-3.71,inactive
Fbh1 (F-box DNA helicase 1),1,no change with or without drug,-0.67,0.34,inactive
Zup1 (zinc finger containing ubiquitin peptidase 1),1,no change with or without drug,1.35,0.67,inactive
Epn3 (epsin 3),1,no change with or without drug,-0.11,0.51,inactive
"Btn1a1 (butyrophilin, subfamily 1, member A1)",1,no change with or without drug,0,-1.18,inactive
Vwa3b (von Willebrand factor A domain containing 3B),1,no change with or without drug,-0.67,1.18,inactive
Dars2 (aspartyl-tRNA synthetase 2 (mitochondrial)),1,no change with or without drug,-0.56,-0.51,inactive
Hoxa3 (homeobox A3),1,no change with or without drug,-0.67,0.51,inactive
Ccl7 (C-C motif chemokine ligand 7),1,no change with or without drug,1.12,0.51,inactive
Cxcl2 (C-X-C motif chemokine ligand 2),1,no change with or without drug,0.22,-1.85,inactive
"Atp2b3 (ATPase, Ca++ transporting, plasma membrane 3)",1,no change with or without drug,-0.34,-1.52,inactive
"Ets2 (Ets proto-oncogene 2, transcription factor)",1,no change with or without drug,1.12,0.51,inactive
Stxbp6 (syntaxin binding protein 6 (amisyn)),1,no change with or without drug,-1.35,-1.35,inactive
"Tbc1d7 (TBC1 domain family, member 7)",1,no change with or without drug,-0.34,-0.17,inactive
"Eif1ax (eukaryotic translation initiation factor 1A, X-linked)",1,no change with or without drug,0.34,0.84,inactive
Stt3a,1,no change with or without drug,-0.67,0,inactive
Or5b113 (olfactory receptor family 5 subfamily B member 113),1,no change with or without drug,-0.45,0.51,inactive
"Supt5 (suppressor of Ty 5, DSIF elongation factor subunit)",1,low cell count with doxorubicin only,-2.47,-0.84,active
Vmn1r84 (vomeronasal 1 receptor 84),1,no change with or without drug,0.67,-0.17,inactive
Cpne7 (copine VII),1,no change with or without drug,-1.24,-1.52,inactive

The list goes on, starting with the last 3 of the part before.
gene knocked down,reagent no.,combined z-score class,viability z-score with doxorubicin,viability z-score without drug,call
"Supt5 (suppressor of Ty 5, DSIF elongation factor subunit)",1,low cell count with doxorubicin only,-2.47,-0.84,active
Vmn1r84 (vomeronasal 1 receptor 84),1,no change with or without drug,0.67,-0.17,inactive
Cpne7 (copine VII),1,no change with or without drug,-1.24,-1.52,inactive
Cit (citron),1,no change with or without drug,-0.45,-1.52,inactive
Cit (citron),2,no change with or without drug,0.56,0,inactive
Rubcnl,1,no change with or without drug,0.22,1.69,inactive
Nrip3 (nuclear receptor interacting protein 3),1,no change with or without drug,-0.45,-0.51,inactive
Cdc20 (cell division cycle 20),1,low cell count with doxorubicin only,-2.25,-0.17,active
5330439B14Rik (RIKEN cDNA 5330439B14 gene),1,high cell count with doxorubicin only,2.7,1.52,inactive
Pde8a (phosphodiesterase 8A),1,no change with or without drug,-0.22,-0.67,inactive
Abo,1,no change with or without drug,-0.79,0.17,inactive
2810025M15Rik (RIKEN cDNA 2810025M15 gene),1,no change with or without drug,-0.22,0,inactive
"Sec16a (SEC16 homolog A, endoplasmic reticulum export factor)",1,no change with or without drug,0.34,-0.51,inactive
Eci3 (enoyl-Coenzyme A delta isomerase 3),1,high cell count without drug only,1.35,2.19,inactive
Gpat3 (glycerol-3-phosphate acyltransferase 3),1,no change with or without drug,0.9,1.69,inactive
Trim30a (tripartite motif-containing 30A),1,high cell count with and without drug,4.05,2.02,inactive
Slc22a12,1,no change with or without drug,-0.67,1.52,inactive
Or4n5 (olfactory receptor family 4 subfamily N member 5),1,no change with or without drug,-0.45,0.51,inactive
Apob (apolipoprotein B),1,no change with or without drug,-0.56,0.84,inactive
Ccdc66 (coiled-coil domain containing 66),1,no change with or without drug,-0.67,0.67,inactive
Klhl8 (kelch-like 8),1,no change with or without drug,0.56,1.35,inactive
A730020M07Rik (RIKEN cDNA A730020M07 gene),1,no change with or without drug,0.22,0.51,inactive
Gatad2a (GATA zinc finger domain containing 2A),1,no change with or without drug,-1.35,0.17,inactive
"Idh1 (isocitrate dehydrogenase 1 (NADP+), soluble)",1,no change with or without drug,-1.35,-0.51,inactive
Or12d17 (olfactory receptor family 12 subfamily D member 17),1,no change with or without drug,0,-0.67,inactive
"Gjb4 (gap junction protein, beta 4)",1,no change with or without drug,-0.22,0.51,inactive
"Abcb10 (ATP-binding cassette, sub-family B member 10)",1,no change with or without drug,0.56,-0.17,inactive
Slc48a1,1,no change with or without drug,-0.56,-1.52,inactive
Hao2 (hydroxyacid oxidase 2),1,no change with or without drug,0.45,-0.51,inactive
"Zdhhc7 (zinc finger, DHHC domain containing 7)",1,no change with or without drug,0.11,-0.51,inactive
"Sprr2j-ps (small proline-rich protein 2J, pseudogene)",1,low cell count without drug only,0.9,-2.7,inactive
Trip12 (thyroid hormone receptor interactor 12),1,no change with or without drug,0.34,-0.17,inactive
Rnf6 (ring finger protein (C3H2C3 type) 6),1,no change with or without drug,-1.24,-1.52,inactive
